For at least one compound, name, drawing or mass did not settle the structure.
How the values were obtained:
skin scratch model rat = assay: Treatment of wound of skin scratch model DM rat; assay type: in vivo; conditions: applied daily on wound of left hindfoot; H1, M1, T1-T4 groups
Protocol: 30 specific pathogen free (SPF) Sprague Dawley (SD) male rats aged 6-8 weeks old (weight 190 g or so) are used to construct as the DM rat model. Specifically, the STZ solution is prepared and used, and the prepared STZ solution is used within 10 minutes. The STZ solution is injected into left lower abdomens of the rats with a single dose of 55 milligrams per kilogram (mg/kg). After a week of the intraperitoneal injection of the STZ solution, the rats are in abrosia but can have water for 12 hours (h), thereafter blood glucose of the rats is detected, and the rats with blood glucose value above 12.6 […] are selected as the DM rat model. The 30 SPF SD male rats are all constructed as the DM rat model, 12 rats died before diabetic foot administration, and 2 rats died during the administration but not appearing effectiveness. Six DM model rats are selected for normal feeding for four weeks. After anesthesia, round skin wounds with each diameter of 5 mm are created on dorsal sides of hindfoots of the DM model rats to generate foot gangrene, as shown in FIG. 2. And then, the DM model rats continue to be fed regularly and the skin wounds of the DM model rats are observed every day. Therapeutic drug of mecobalamin (H1 group) is applied daily on the wound disposed on the left hindfoot of the skin scratch model rat, and then the wound of the model rat is observed. […]

[1] = system: skin scratch model rat combined with glacial acetic acid; assay: Treatment of foot gangrene of skin scratch model rat combined with glacial acetic acid; assay type: in vivo; conditions: applied daily on foot gangrene of left hindfoot; epalrestat M2 group; hydrogel T5-T8 groups

CC(/C=C1\SC(=S)N(CC(=O)O)C1=O)=C\c1ccccc1 [epalrestat, Epalrestat]
effect on wound healing (skin scratch model rat): has a promoting effect on wound healing | healing speed compared with control group [1]: no significant difference
